From patent publication US20210115153A1 (PEPTRON, published 2021)
These are yes or no findings as the source states them, for the method shown. Some results given as binding are weak or reduced against the parent protein; the word gives no strength.

Protein sequences, listed by entry. Tags and fused reporters are not part of them. Lines headed by an entry give the natural chain unless they say otherwise; changes in a name come on top.
UniProt P15941: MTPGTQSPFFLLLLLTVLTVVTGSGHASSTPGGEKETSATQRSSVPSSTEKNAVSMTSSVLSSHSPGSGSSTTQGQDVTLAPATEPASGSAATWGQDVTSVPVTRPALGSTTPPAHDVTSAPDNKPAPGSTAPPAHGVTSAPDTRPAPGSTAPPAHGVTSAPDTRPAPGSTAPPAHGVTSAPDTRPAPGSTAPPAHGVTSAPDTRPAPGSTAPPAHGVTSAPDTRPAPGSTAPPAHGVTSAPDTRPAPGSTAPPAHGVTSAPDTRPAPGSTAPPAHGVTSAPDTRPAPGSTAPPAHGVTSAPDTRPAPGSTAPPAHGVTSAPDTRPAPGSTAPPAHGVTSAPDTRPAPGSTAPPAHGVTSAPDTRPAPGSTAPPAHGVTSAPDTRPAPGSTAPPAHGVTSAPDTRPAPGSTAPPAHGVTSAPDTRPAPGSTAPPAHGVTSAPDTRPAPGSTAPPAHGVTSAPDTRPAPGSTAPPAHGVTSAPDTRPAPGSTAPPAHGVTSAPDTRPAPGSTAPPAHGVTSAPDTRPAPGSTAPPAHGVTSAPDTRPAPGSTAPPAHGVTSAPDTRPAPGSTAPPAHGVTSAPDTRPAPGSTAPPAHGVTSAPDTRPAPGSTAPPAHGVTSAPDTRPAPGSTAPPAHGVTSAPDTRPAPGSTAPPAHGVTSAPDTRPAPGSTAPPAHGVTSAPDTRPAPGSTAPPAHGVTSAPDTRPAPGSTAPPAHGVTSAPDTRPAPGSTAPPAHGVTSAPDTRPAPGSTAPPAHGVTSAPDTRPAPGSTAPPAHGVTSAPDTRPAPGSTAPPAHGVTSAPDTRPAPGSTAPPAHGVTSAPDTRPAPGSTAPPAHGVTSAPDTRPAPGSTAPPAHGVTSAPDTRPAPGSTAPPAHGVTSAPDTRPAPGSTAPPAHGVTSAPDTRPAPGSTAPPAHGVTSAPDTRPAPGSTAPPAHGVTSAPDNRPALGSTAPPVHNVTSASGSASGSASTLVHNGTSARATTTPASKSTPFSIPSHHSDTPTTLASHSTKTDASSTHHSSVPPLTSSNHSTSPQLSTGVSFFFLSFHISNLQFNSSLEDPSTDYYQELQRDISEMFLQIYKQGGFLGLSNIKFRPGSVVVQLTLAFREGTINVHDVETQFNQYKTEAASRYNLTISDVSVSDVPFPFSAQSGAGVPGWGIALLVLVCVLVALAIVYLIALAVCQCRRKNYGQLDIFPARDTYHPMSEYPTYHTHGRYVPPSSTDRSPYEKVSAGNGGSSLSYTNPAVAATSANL

Key:
[1] = biological target: human MUC1 protein (Mucin 1), endogenous in human cancer cell lines (human) (UniProt P15941); test: intravenous injection into mice with T47D, ZR75-1 or Capan-2 tumors, fluorescence of tumor sections
[2] = biological target: human MUC1 protein (Mucin 1), endogenous in human cancer cell lines (human) (UniProt P15941); test: DyLight 488-labelled antibody on living cancer cells at 37 °C, confocal microscopy
[3] = biological target: human MUC1 protein (Mucin 1), endogenous in human cancer cell lines (human) (UniProt P15941); test: immunofluorescence of fixed cells (surface and intracellular), confocal microscopy
[4] = biological target: human MUC1 protein (Mucin 1), endogenous in human cancer cell lines (human) (UniProt P15941); test: immunoprecipitation from native cell lysates, immunoblot with anti-MUC1-CT
[5] = biological target: human MUC1 protein (Mucin 1), endogenous in human cancer cell lines (human) (UniProt P15941); test: flow cytometry on ZR75-1 cells, several antibody concentrations
[6] = biological target: human MUC1 protein (Mucin 1), endogenous in human cancer cell lines (human) (UniProt P15941); test: immunoprecipitation from native cell lysates (FIG. 3B)
[7] = biological target: human MUC1 protein (Mucin 1), endogenous in human cancer cell lines (human) (UniProt P15941); test: immunoprecipitation from PNGase F-treated T47D lysate, immunoblot with anti-MUC1-CT or anti-MUC1-CT2
[8] = biological target: human MUC1 protein (Mucin 1), endogenous in human cancer cell lines (human) (UniProt P15941); test: immunoprecipitation from native pancreatic cancer cell lysates, immunoblot
[9] = biological target: human MUC1 protein (Mucin 1), endogenous in human cancer cell lines (human) (UniProt P15941); test: flow cytometry on ZR75-1 cells (legend of FIG. 20)
[10] = biological target: human MUC1 protein (Mucin 1), endogenous in human cancer cell lines (human) (UniProt P15941); test: immunofluorescence of breast cancer cells, confocal microscopy
[11] = biological target: human MUC1 protein (Mucin 1), endogenous in human cancer cell lines (human) (UniProt P15941); test: flow cytometry (legend of FIG. 19)
[12] = biological target: human MUC1 protein (Mucin 1), endogenous in human cancer cell lines (human) (UniProt P15941); test: flow cytometry on paraformaldehyde-fixed cells, FITC anti-human IgG

Measured: binding

B1: anti-hMUC1 monoclonal antibody purified from hybridoma hMUC1-1H7 (KCLRF-BP-00395) (antibody, V domains shown)
VH: EVQLQQSGAELAKPGASVKMSCKVSGYTFTSYWMHWVKQRPGQGLEWIGYINPGTGYIEYNQKFKDKATLTADKSSSTAYMQLSSLTSEDSAVYYCASSTAPFDYWGQGTTLTVSS
VL: DIVITQSPSSMYASLGERVTITCKASQDIKSYLSWYQQKPWKSPKTLIYYATRLADGVPSRFSGSGSGQDYSLTISSLESDDTATYYCLQYDESPYTFGGGTKLEIKR
notes: also called anti-hMUC1 antibody; anti-hMUC1-C mouse antibody (1H7)
not listed: [10] | [11] | [12]
binds: all other assays above

B2: recombinant Fab-hMUC1-1H7 (Fab, V domains shown, not shown: a dimerising Fc or GST; small tags and cut ends)
VH: EVQLQQSGAELAKPGASVKMSCKVSGYTFTSYWMHWVKQRPGQGLEWIGYINPGTGYIEYNQKFKDKATLTADKSSSTAYMQLSSLTSEDSAVYYCASSTAPFDYWGQGTTLTVSS
VL: DIVITQSPSSMYASLGERVTITCKASQDIKSYLSWYQQKPWKSPKTLIYYATRLADGVPSRFSGSGSGQDYSLTISSLESDDTATYYCLQYDESPYTFGGGTKLEIKR
binds: [10]

B3: anti-hMUC1-C humanized antibody (G3) (antibody, V domains shown)
VH: EVQLVQSGAEVKKPGATVKISCKVSGYTFTSYWMHWVQQAPGKGLEWIGYINPGTGYIEYNQKFKDRVTITADKSTDTAYMELSSLRSEDTAVYYCASSTAPFDYWGQGTLVTVSS
VL: EIVLTQSPGTLSLSPGERATLSCKASQDIKSYLSWYQQKPGQAPRLLIYYATRLADGIPDRFSGSGSGTDFTLTISRLEPEDFAVYYCLQYDESPYTFGQGTKLEIKR
binds: [11] | [5] | [12] | [9]
